# Library screening results

Protein sequences, listed by entry. Tags and fused reporters are not part of them.
UniProt E9BF75, entry or part of it: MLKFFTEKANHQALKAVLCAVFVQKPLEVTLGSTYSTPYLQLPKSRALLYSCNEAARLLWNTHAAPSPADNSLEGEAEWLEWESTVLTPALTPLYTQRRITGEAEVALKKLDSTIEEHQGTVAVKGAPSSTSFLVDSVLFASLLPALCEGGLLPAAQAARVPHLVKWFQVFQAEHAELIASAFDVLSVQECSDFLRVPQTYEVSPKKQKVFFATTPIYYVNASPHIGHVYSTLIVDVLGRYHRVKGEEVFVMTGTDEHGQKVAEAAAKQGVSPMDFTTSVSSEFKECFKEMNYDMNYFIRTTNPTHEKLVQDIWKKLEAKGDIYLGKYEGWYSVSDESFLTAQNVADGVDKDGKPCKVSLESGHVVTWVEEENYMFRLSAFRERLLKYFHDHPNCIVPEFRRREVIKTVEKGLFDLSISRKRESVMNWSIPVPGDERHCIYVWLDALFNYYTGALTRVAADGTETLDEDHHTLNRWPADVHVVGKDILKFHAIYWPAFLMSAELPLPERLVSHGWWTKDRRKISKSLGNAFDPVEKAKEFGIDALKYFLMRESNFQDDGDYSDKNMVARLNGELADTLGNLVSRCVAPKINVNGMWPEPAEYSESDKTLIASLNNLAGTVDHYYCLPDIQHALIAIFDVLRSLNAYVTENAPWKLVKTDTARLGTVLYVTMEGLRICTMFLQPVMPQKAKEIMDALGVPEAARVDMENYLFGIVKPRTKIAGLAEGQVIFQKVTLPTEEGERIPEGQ

Source: ChEMBL document CHEMBL3988442, “University of Dundee, Small-Polar-MMV Screening Library” (2021).

LdMetRS: 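Methionyl-tRNA synthetase (putative), Leishmania donovani (UniProt E9BF75). Primary screen of methionyl-tRNA synthetase; the read-out is not stated. The test concentration is not given. The values are filed as inhibition. About 68,000 compounds were tested under these conditions; 0.035% (about 24) showed 50% or more at least once.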
Mtb heat-shock: 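Assay on Mycobacterium tuberculosis, filed only as a heat shock assay from Cornell; the read-out is not stated. The concentration is filed as 10 mM, unlikely as a test dose, so the dose is not known. The record gives no direction; compounds that gave an IC50 in retests scored well above the rest, so higher reads as stronger inhibition. Of about 69,000 compounds tested this way, about 930 (1.4%) reached 50% or more in at least one test.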

Results are percentages, as filed. The record does not define 0% and 100%; most values in the screen are far below 50% and negative numbers occur (in some assays of this library far below -100). The compounds are a random part of those screened.

- CCCN1CC2(CCN(c3ccc(C(C)=O)cn3)CC2)CC1C(=O)O (stereo not given) | LdMetRS: 14.34%; Mtb heat-shock: -0.8743%
- Cc1nc(O)c2nnn(C[C@H]3CCCN3C(=O)c3ccc(F)cc3)c2n1 | LdMetRS: 10.42%; Mtb heat-shock: 4.264%
- CC(C)OC(=O)CC(NC(=O)CCn1cccn1)c1ccccc1 (stereo not given) | LdMetRS: -1.796%; Mtb heat-shock: -7.099%
- O=C(O)C(F)(F)F.[H][C@@]12COC[C@]1(CNS(=O)(=O)CC)CN(Cc1ccsc1)C2 | Mtb heat-shock: -8.063%
- COc1ccc(OCC(=O)NS(=O)(=O)c2ccc(Cl)s2)cc1 | LdMetRS: 7.652%; Mtb heat-shock: -10.04%
- Cc1cc2nc(C(C)C)cc(N3CCC(Oc4ncccn4)CC3)n2n1 | LdMetRS: 4.393%; Mtb heat-shock: -2.999%
- CN1CCN(Cc2cnc3n2CCN(Cc2cccs2)C3)CC1.O=C(O)C(F)(F)F.O=C(O)C(F)(F)F.O=C(O)C(F)(F)F | Mtb heat-shock: -1.112%
- CC(O)CN1CCC(CN(C)CC(=O)NC2CCOCC2)CC1 (stereo not given) | LdMetRS: -1.292%; Mtb heat-shock: 1.393%
- Cc1noc(C)c1CN1CCC2(CC1)CC(Oc1cccnc1)CO2.O=C(O)C(F)(F)F (stereo not given) | Mtb heat-shock: -26.42%
- CCCn1c(C)c(CC(=O)N(C)CCO)c2c1CC(C)(C)CC2=O | LdMetRS: 8.992%; Mtb heat-shock: -17.48%
- [H][C@]12CNC[C@@]1(C(=O)N1CCN(Cc3ncccc3C)CC1)CN(C)C2 | Mtb heat-shock: 22.49%
- CC(OCC(F)(F)F)C(=O)NCc1ccc(-n2cncn2)nc1 (stereo not given) | LdMetRS: 15.97%; Mtb heat-shock: -17.96%
- Cc1ccoc1C(=O)N1CCO[C@H]2[C@H](OCC3CCOCC3)CC[C@@H]21 | LdMetRS: 13.81%
- CC(C)c1nn(C)c(Cl)c1CNCCn1cccn1 | LdMetRS: 15.92%; Mtb heat-shock: -25.19%
- CC(C(=O)NCCN1CCN(C)CC1)n1cncn1 (stereo not given) | LdMetRS: 14.86%; Mtb heat-shock: 2.584%
- Cc1ccc2c(c1)SCC(=O)N2CC(=O)N1CCCC1c1nccs1 (stereo not given) | LdMetRS: 7.711%; Mtb heat-shock: 34.79%
- CCc1cc(CNC(=O)N(C2CC2)C(C)c2ccco2)[nH]n1 (stereo not given) | LdMetRS: 10.76%; Mtb heat-shock: -2.384%
- Cc1nccn1CCN(C)C(=O)c1cn(-c2ccccc2)nn1 | LdMetRS: 8.669%; Mtb heat-shock: -32.64%
- N#Cc1cccnc1N1CCC(c2nc(C(F)(F)F)c[nH]2)CC1 | LdMetRS: 10.45%; Mtb heat-shock: 12.52%
- Cc1ccccc1C(CC(=O)NCC(N)=O)c1ccccc1 (stereo not given) | LdMetRS: 11.62%; Mtb heat-shock: 7.006%
- CCN(CC)Cc1nc(Cc2cccc(C(F)(F)F)c2)no1 | LdMetRS: 9.661%; Mtb heat-shock: -33.86%
- O=C(C1CCCO1)N1CCC2(CC1)COCCN(Cc1cccnc1)C2.O=C(O)C(F)(F)F.O=C(O)C(F)(F)F (stereo not given) | Mtb heat-shock: -5.406%
- COCCN1CCC2(CC1)CC(c1cccnc1)CO2.O=C(O)C(F)(F)F (stereo not given) | Mtb heat-shock: -33.5%
- O=C(c1cccc2cccnc12)N1CCCC(n2ccnc2)C1 (stereo not given) | LdMetRS: 14.21%; Mtb heat-shock: 11.13%
- COCC(=O)N1CCCC2(CCN(Cc3cccc(C)n3)C2=O)C1 (stereo not given) | LdMetRS: 9.929%
- COc1ccnc(N2CCCN(c3nc(C4CC4)ns3)CC2)n1 | LdMetRS: 4.545%; Mtb heat-shock: -7.298%
- Oc1ccccc1CN1CCCCCC1c1cccs1 (stereo not given) | LdMetRS: 14.08%; Mtb heat-shock: -4.503%
- CC1(C)OC(=O)N(CCCC(=O)c2ccc(F)cc2)C1=O | LdMetRS: 20.43%; Mtb heat-shock: -19.09%
- O=C(c1ncc[nH]1)N1CCC(n2cc(-c3cccc(Cl)c3)nn2)CC1 | LdMetRS: 15.28%; Mtb heat-shock: -17.17%
- CCn1c(Cn2cccn2)nnc1C1CCN(Cc2ccc(C)o2)CC1 | LdMetRS: 5.914%; Mtb heat-shock: -6.03%
- Cc1cc(CN2CCOC(CN(C)C)C2)no1 (stereo not given) | LdMetRS: 7.302%; Mtb heat-shock: 25.79%
- CCOc1cc(CNCCCn2ccnc2)cc(Cl)c1OC | LdMetRS: 0.7792%; Mtb heat-shock: -6.942%
- Cc1ccc(F)c(NS(=O)(=O)c2cc3c(c(C(=O)O)c2)OCCO3)c1 | LdMetRS: 7.542%; Mtb heat-shock: -7.666%
- COc1ccc(C(=O)N2CCC(Oc3cccc(C)c3)(C(=O)O)CC2)o1 | LdMetRS: 1.361%; Mtb heat-shock: 4.749%
- NC(=O)NC1CCN(Cc2ccccc2OCC(F)(F)F)CC1 | LdMetRS: 13.13%; Mtb heat-shock: -33.65%
- COc1c(CNC2(c3noc(C)n3)CCC2)c(C(C)C)nn1C.Cl | Mtb heat-shock: -5.666%
- NC(=O)c1ccc(N2CCCCC2)c(NC(=O)c2cc(Br)ccc2Cl)c1 | LdMetRS: 6.832%; Mtb heat-shock: -6.281%
- Cc1ccc(C(=O)N2C[C@@H]3OCCN(C(C)C)[C@@H]3C2)cn1 | LdMetRS: 5.333%
- CCOCC(O)CN1CCN(C(=O)c2cc(Cl)ccc2F)CC1 (stereo not given) | LdMetRS: 22.73%; Mtb heat-shock: -15.18%